# Data: PMC7819943, “Rice protein-binding microarrays: a tool to detect cis-acting elements near promoter regions in rice”
# This is one part of the list.
# Target: T1, OsSMF1 (Oryza sativa, UniProt Q6ZLB0 1-436)
# T1 sequence: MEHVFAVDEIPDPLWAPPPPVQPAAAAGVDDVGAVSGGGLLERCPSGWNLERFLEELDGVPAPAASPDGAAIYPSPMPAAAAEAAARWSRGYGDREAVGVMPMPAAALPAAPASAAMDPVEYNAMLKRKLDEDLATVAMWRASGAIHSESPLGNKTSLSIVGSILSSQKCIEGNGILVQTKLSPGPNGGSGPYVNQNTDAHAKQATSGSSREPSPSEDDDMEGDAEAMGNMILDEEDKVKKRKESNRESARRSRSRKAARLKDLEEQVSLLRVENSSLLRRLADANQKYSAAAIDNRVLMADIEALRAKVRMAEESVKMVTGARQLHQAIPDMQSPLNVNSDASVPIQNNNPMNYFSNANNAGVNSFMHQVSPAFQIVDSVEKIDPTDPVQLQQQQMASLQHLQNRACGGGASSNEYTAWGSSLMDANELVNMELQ
# Experiment: protein-binding microarray (RPBM); PBS, 2% BSA, 51.3 ng/ul salmon testes DNA, 50 uM zinc acetate, 200 nM TF, 25 C, 1 h; high values mean tight binding
# Details: protein: recombinant; tags: N-terminal polyhistidine and DsRed monomer fusion (pET32a); chain copies: 2; label: CyDye5-dUTP incorporated in the synthesized complementary strand; 3' TTTTT single-stranded linker to array surface; dsDNA, one strand shown
# Procedure, shortened: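 An Axon 4000B scanner gave the binding signal as per-feature fluorescence intensity in arbitrary units. This followed washing of a custom Agilent array that had been incubated for 1 h at 25 °C with 200 nM protein in PBS, 2% BSA, salmon testes DNA and 50 µM zinc acetate. The proteins were transcription factors fused at the N-terminus to polyhistidine and DsRed, expressed in E. coli BL21-CodonPlus and purified on Ni–NTA.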
row,Sequence,binding signal
1,CGAACGCGAGGCGCCTCCGATGTACACGTGGCGCCTCCTCCGGAGTCACCTAGTGCAG,25900 fluorescence intensity (a.u.)
2,TCCATTGTCCTCTCTGACTCTACTCCTCCCTCTCTCTGTCCGGAGTCACCTAGTGCAG,3720 fluorescence intensity (a.u.)
3,AATCTTCCATTCGTGGCGGAATGCCACGTGAGTAGCTGCGCGGAGTCACCTAGTGCAG,8760 fluorescence intensity (a.u.)
4,CGGTGCCAAGTCAAAGCCTAGCCAAGCCACGCGAGACGAGCGGAGTCACCTAGTGCAG,3900 fluorescence intensity (a.u.)
5,TTCATTCCCAAATGCCACCCGGGCCCACATGTCAGCCTCACGGAGTCACCTAGTGCAG,4670 fluorescence intensity (a.u.)
6,TCGACCAGATCAATGAGTCATGTCAACAAATATTGCTGTACGGAGTCACCTAGTGCAG,4320 fluorescence intensity (a.u.)
7,CTGTTTCGCTGACGTGACGCCTACGTGGCATCCCAGTCATCGGAGTCACCTAGTGCAG,40300 fluorescence intensity (a.u.)
8,TACAACACCATATATAATACCCGATGTGACACACCAAAACCGGAGTCACCTAGTGCAG,3580 fluorescence intensity (a.u.)
9,CCCTCGCCATTTCATTGGCCGTTTCGTGGCCATCCATCACCGGAGTCACCTAGTGCAG,3230 fluorescence intensity (a.u.)
10,GAGGGACCCACCGTCCAGCAGGAGACTGCCATGTGGGCCCCGGAGTCACCTAGTGCAG,3740 fluorescence intensity (a.u.)
11,TCCCATGGCGATCTCCGAGTCCCTCGCCCCGTCCATCGACCGGAGTCACCTAGTGCAG,17400 fluorescence intensity (a.u.)
12,GAGGAGGGAATTACTACCACCGGGTGACTCGTGGTTTCGTCGGAGTCACCTAGTGCAG,4450 fluorescence intensity (a.u.)
13,TCCCACAATGATTCACCCCGATCCGGTTCGCCACGTCACCCGGAGTCACCTAGTGCAG,31600 fluorescence intensity (a.u.)
14,ACGGTCACGAAGCCGCCACGTCGCGCTTGTCACCACGCTGCGGAGTCACCTAGTGCAG,6560 fluorescence intensity (a.u.)
15,CCAAACATTTGATGACATCAAGTGCAAGTGCAACGGAGACCGGAGTCACCTAGTGCAG,3830 fluorescence intensity (a.u.)
16,ATCGTCAAAATGTGTGAAAACACAATCGACCACGTCAGGTCGGAGTCACCTAGTGCAG,11500 fluorescence intensity (a.u.)
17,GCGGTGACTTGGCTGTCGTCCCACTCAGCCTACCGCGTGTCGGAGTCACCTAGTGCAG,5270 fluorescence intensity (a.u.)
18,GGAGGCCACCCCTGTGCGTCTCGTCCCATCCAACTCATCTCGGAGTCACCTAGTGCAG,3670 fluorescence intensity (a.u.)
19,TCCGCGGTTATAGCTGCACAGTGTGGTGGCATTTGAGCTCCGGAGTCACCTAGTGCAG,3990 fluorescence intensity (a.u.)
20,CATATATATACACTTTGTATATGTATATAAAGTATATACACGGAGTCACCTAGTGCAG,5480 fluorescence intensity (a.u.)
21,ATGCCACATAAACCCTACGTCAATGCCACGTGGGACAAAGCGGAGTCACCTAGTGCAG,22600 fluorescence intensity (a.u.)

# Four entries from above, as tab-separated lines.
row	Sequence	binding signal
1	CGAACGCGAGGCGCCTCCGATGTACACGTGGCGCCTCCTCCGGAGTCACCTAGTGCAG	25900 fluorescence intensity (a.u.)
5	TTCATTCCCAAATGCCACCCGGGCCCACATGTCAGCCTCACGGAGTCACCTAGTGCAG	4670 fluorescence intensity (a.u.)
15	CCAAACATTTGATGACATCAAGTGCAAGTGCAACGGAGACCGGAGTCACCTAGTGCAG	3830 fluorescence intensity (a.u.)
17	GCGGTGACTTGGCTGTCGTCCCACTCAGCCTACCGCGTGTCGGAGTCACCTAGTGCAG	5270 fluorescence intensity (a.u.)

# Following part.

row,Sequence,binding signal
1,AAGTGCATTGGTGCTGGTGTGCAGTGCCAAAACAAATACACGGAGTCACCTAGTGCAG,15300 fluorescence intensity (a.u.)
2,ATAGTGATGGTCAGATGGACACGTGGAAATTGCTTACATTCGGAGTCACCTAGTGCAG,10900 fluorescence intensity (a.u.)
3,GGCAGTAGTCATATGAATGCCTTCCCACGTATACTTCCATCGGAGTCACCTAGTGCAG,5410 fluorescence intensity (a.u.)
4,TCCCTACGACACGCTCCTATTAGGTGCCGTTGTGCGGCGGCGGAGTCACCTAGTGCAG,3800 fluorescence intensity (a.u.)
5,CAGCGGCGGGTGGCCGCCGGGCTGCCATTGTCCGGGAGGCCGGAGTCACCTAGTGCAG,4000 fluorescence intensity (a.u.)
6,GGTGTCCATAAATCGTCACGCGCGCGAAACCATCCCGTCCCGGAGTCACCTAGTGCAG,23800 fluorescence intensity (a.u.)
7,GCGACCAGCTCGAACGGATGCGAGGCCACGCCACGGGTCCCGGAGTCACCTAGTGCAG,4220 fluorescence intensity (a.u.)
8,TACTTCTGAAATCTCACGTGGCATTGGATTGACGTGTCATCGGAGTCACCTAGTGCAG,26800 fluorescence intensity (a.u.)
9,CCAGCGCGCCTGTAGGCGGAGGAGGAGGCAGCCGCGTTGGCGGAGTCACCTAGTGCAG,3870 fluorescence intensity (a.u.)
10,CTGTTTGGGAAAATAACGGCGCCCATTTGTCCGAAGAGCTCGGAGTCACCTAGTGCAG,25300 fluorescence intensity (a.u.)
11,TTCACAGCAAAGACTGCTTCTAAACCCCTTCCTGTTGGGGCGGAGTCACCTAGTGCAG,3630 fluorescence intensity (a.u.)
12,GAAGTGACCCGCACCCTTCTTTGCGACGAACCTGTCACTGCGGAGTCACCTAGTGCAG,3260 fluorescence intensity (a.u.)
13,AGCCCGCCTGTTGTGGGGCCCACATGTCTGGTACACTGTGCGGAGTCACCTAGTGCAG,3860 fluorescence intensity (a.u.)
14,CGAGGAATTGTACTCAGGTCATTCCGGTTTCCGTGGCTAACGGAGTCACCTAGTGCAG,3190 fluorescence intensity (a.u.)
15,TTGCCCGTTGCCGCCTTCATCGCTGACGCCTGCCACCGAGCGGAGTCACCTAGTGCAG,4730 fluorescence intensity (a.u.)
16,GAAGATGGTGATGAGGTGGCACGTGACTTGTCAAAGGGCTCGGAGTCACCTAGTGCAG,11600 fluorescence intensity (a.u.)
17,CCTCTTCCTCCGCGGCGGCGCCGCCGCCGCCGAGTTCTCCCGGAGTCACCTAGTGCAG,3510 fluorescence intensity (a.u.)
18,CGAATCTTGAAGCAAATCTGACGGTTCGTGCCTCCTGAGTCGGAGTCACCTAGTGCAG,3500 fluorescence intensity (a.u.)
19,AACGGCTCAATAACAGCATAGATGACGTGAGTGGAAAATCCGGAGTCACCTAGTGCAG,3180 fluorescence intensity (a.u.)
20,AGCTCCTATGTCAGCTCCCGCCGCCGCCAGCCGCCACCACCGGAGTCACCTAGTGCAG,3390 fluorescence intensity (a.u.)
21,GTTGTACATGAGTTGTACAACTGGGTCATATGTATCATCTCGGAGTCACCTAGTGCAG,3270 fluorescence intensity (a.u.)
